Measurements from paper doi:10.1101/2020.02.03.932962.
Like-named read-outs stand apart in the source and are kept apart here. For at least one entry, the source does not settle the construct or the ends of the probe. For some of these results: A negative result means that nothing was seen under these conditions. For some of these results: At least one verdict was read from the data and is not stated in words by the source. For some of these results: Protein sequences can lack the tags named with them. For some of these results: The comparison behind a weaker result is the experiment's own reference, which may not be listed here. For some of these results: At least one result comes from cells or an extract, where the contact may be indirect. For some of these results: The direction of at least one scale is not stated here.

The chains behind the UniProt entries cited, without tags or fusion partners. Residues count along the entry.
UniProt O95863, 151-264: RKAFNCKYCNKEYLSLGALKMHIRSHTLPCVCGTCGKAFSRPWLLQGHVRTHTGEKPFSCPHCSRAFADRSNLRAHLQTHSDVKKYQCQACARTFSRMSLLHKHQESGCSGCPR

Legend:
Snail/ZF1-4 (His) = Snail/ZF1-4 (His) (UniProt O95863); test: EMSA
[1] = system: Twist/bHLH+WR (His, co-expressed with E47/bHLH) + E47/bHLH; test: EMSA
Sox9/DIM+HMG (His) = molecular target: T1, Sox9/DIM+HMG (His) (UniProt P48436); test: EMSA
T1 sequence (looked up, limits assumed): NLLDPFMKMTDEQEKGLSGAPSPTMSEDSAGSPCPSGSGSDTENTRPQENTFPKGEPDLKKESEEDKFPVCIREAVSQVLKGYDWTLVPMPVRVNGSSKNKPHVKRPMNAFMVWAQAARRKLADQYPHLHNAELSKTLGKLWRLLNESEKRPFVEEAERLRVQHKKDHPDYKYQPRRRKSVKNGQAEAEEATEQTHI

[2] = system: Twist (endogenous, SUM1315) + Snail (endogenous, SUM1315) + Sox9 (endogenous, SUM1315); test: biotin-DNA pull-down, western blot; conditions: SUM1315 nuclear extract; 5' biotin; protein in an extract
[3] = system: Twist/bHLHdeltaWR (His) + E47/bHLH; test: EMSA

Sequence: CCAGGACAATGCCGCCATTGTCCTGG (double strand) [Sox9 dimer consensus]
- binding result (Snail/ZF1-4 (His); not appreciably bound): no binding
- binding result ([1]; not appreciably bound): no binding
- binding result (Sox9/DIM+HMG (His); robust): binds

Sequence: GCTCAGATGGAAGCCATGTGTGC (double strand) [A2M dyad E-box, biotinylated]
- binding result [2]: binds

Sequence: GCTCAGATGGAAGCCATGTGTGC (double strand) [A2M dyad E-box]
- binding signal (fold less apparent affinity) (Snail/ZF1-4 (His); text compares with its canonical site, also stated as not binding): 100
- binding result [1]: binds
- binding result ([1]; with Snail/ZF1-4 and Sox9/DIM+HMG, slower (tetramer) band increased): binds
- binding result ([3]; higher-order complex lost without WR): binds more weakly
- binding result ([3]; with Snail/ZF1-4 and Sox9/DIM+HMG, higher-order complex partly recovered): binds
- binding result (Sox9/DIM+HMG (His)): no binding

Sequence: GTGGCCGGCAGGTGAACCCTCA (double strand) [E-cad E-box]
- binding result (Snail/ZF1-4 (His)): binds
- binding result ([1]; bound very poorly): binds more weakly
- binding result (Sox9/DIM+HMG (His)): no binding
